We go through 5 molecules from paper PMC4935465.

No constants are given. Whether binding was seen depends on the method and setting. In cells and extracts the contact can be indirect. Here binding means that the protein was enriched with, or labelled near, the bait; the list need not be complete. No binding means not detected with the bait. Sequences can lack the tags named with a protein.

The target of this test is T1, Vps8-HA (Drosophila melanogaster) (UniProt Q9VRX2).
T1 sequence: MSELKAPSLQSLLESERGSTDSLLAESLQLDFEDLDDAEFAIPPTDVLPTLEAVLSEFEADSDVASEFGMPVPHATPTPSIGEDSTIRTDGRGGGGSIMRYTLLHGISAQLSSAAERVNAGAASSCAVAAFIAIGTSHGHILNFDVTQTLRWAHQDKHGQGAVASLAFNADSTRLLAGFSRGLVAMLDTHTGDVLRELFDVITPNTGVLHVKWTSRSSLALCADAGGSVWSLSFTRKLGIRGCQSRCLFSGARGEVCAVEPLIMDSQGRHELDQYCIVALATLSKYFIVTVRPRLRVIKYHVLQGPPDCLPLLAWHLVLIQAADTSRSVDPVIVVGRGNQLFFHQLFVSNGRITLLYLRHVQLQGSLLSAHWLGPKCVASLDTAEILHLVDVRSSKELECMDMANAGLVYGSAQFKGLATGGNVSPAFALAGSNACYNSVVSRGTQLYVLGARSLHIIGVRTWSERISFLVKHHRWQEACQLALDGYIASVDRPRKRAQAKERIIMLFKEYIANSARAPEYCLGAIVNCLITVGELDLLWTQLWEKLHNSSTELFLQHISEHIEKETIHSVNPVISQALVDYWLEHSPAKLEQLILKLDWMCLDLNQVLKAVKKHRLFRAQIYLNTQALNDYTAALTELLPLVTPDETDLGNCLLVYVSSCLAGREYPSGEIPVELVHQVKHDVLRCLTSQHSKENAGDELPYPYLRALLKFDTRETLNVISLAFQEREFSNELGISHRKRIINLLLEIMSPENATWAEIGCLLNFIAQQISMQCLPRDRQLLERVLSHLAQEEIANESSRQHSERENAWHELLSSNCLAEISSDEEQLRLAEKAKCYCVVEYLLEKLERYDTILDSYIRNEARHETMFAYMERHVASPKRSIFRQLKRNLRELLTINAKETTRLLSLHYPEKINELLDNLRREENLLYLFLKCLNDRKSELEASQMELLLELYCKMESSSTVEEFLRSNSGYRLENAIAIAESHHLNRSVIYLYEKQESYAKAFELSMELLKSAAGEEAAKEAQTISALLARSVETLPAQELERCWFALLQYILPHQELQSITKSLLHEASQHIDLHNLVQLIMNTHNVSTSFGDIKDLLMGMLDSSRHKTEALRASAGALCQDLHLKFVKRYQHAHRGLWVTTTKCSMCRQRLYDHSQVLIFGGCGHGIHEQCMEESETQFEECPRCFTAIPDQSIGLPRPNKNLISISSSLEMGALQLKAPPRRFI
In words: affinity purification with mass spectrometry; Vps8-HA precipitated with monoclonal anti-HA agarose from lysates of vps8-HA; vps8^1/Df adult flies (w^1118 as control); 50 mM Tris-HCl pH 7.5, 150 mM NaCl, 0.5 M EDTA (so in the source), 0.5% Triton X-100; 2 hr at 4°C; tryptic digestion, LC-MS/MS.

B1: Dor/Vps18 (protein, UniProt Q24314 1-1002)
chain: MDTSMPNQPKFLPRIEHNSSGATANSYVATASGNPFETDEEDEIFSRHKMVLRVPSNCTGDLMHLAVSRNWLVCLLGTPERTTLLRFFLPRAIPPGEAVLEKYLSGSGYKITRMFLDPTGHHIIIALVPKSATAGVSPDFLYIHCLESPQAQQLKVRRIEKFKDHEITAVAFNPYHGNESSTGPILLGTSRGLIFETELNPAADGHVQRKQLYDLGLGRPKYPITGLKLLRVPNSSRYIIVVTSPECIYTFQETLKAEERSLQAIFAGYVSGVQEPHCEERKTDLTFSQLRFFAPPNSKYPKQWAWLCGEGIRVGELSIEANSAATLIGNTLINLDFEKTMHLSYGERRLNTPKAFVLTEYHAVLLYADHVRAICLLNQEQVYQEAFDEARVGKPLSIERDELTGSIYVYTVKTVFNLRVTREERNVWRIYLDKGQYELATAHAAEDPEHLQLVLCQRADAAFADGSYQVAADYYAETDKSFEEVCLKFMVLPDKRPIINYVKKRLSRVTTKPMETDELDEDKMNIIKALVIWLIDLYLIQINMPDKDEEWRSSWQTEYDEFMMEAHVLSCTRQNRETVRQLIAEHADPRNMAQFAIAIGDYDEVVAQQLKAECYAEALQTLINQRNPELFYKYAPELITRLPKPTVDALMAQGSRLEVEKLVPTLIIMENREQREQTQRYLEFAIYKLNTTNDAIHNFLLHLYAEHEPKLLMKYLEIQGRDESLVHYDIYYAHKVCTDLDVKEARVFLECMLRKWISAVDLALTFDMKLAKETASRPSDSKIRRKLWLRIAYHDIKGTNDVKKALNLLKECDLLRIEDLLPFFADFEKIDNFKEAICDALRDYNQRIQELQREMAETTEQTDRVTAELQQLRQHSLTVESQDTCEICEMMLLVKPFFIFICGHKFHSDCLEKHVVPLLTKEQCRRLGTLKQQLEAEVQTQAQPQSGALSKQQAMELQRKRAALKTEIEDILAADCLFCGLLISTIDQPFVDDWEQVNVEWE
With B1, the binding entry is “binds”.

B2: Vps16A (protein, UniProt Q9VHG1 1-833)
chain: MPIMYNTGEWFKVRPDYYRKVELATPDWPLDLDLEYMWVEVAPYGGPLAVTRDPTKLVPVKGNARPMIRIFDTTGREMGHILWNHGKLIAMGWSDMEELICIQENATVFVYDMFGREKESYSIGDEASVTKIVEGKVFQSSAGTGVAVMTTSGRVFLKQNSSKTERKLPDIPNSSMNCSCWEIVTEGRNSYCLLGRDREVIKLFPGETVGTITANLFEKPHERIIKISVSYNHQHLALYTNTGLLWLGSVDMRQKYCEFDTGRKDMPLQMEWIMNSDNSEADAVVISYPSYLLIVNRNADRSDFPYDPVMFLVAEMDGVRIITQSSHEIIQRLPKCVENIFAVNSQEPASYLFEAQKKFEEKSYKSDEYLSMCREKIDLAVSECIEAASYEFCPETQKSLLRTAYFGKGFIRNHNPDEYMRIMRILRVLNTLRHERIAMPITFKQFSHLNTEVILSRLVFRKHYAIAIQVAKHLNLPESWILEHWAYHKVMNDPNDTEVARKITEKFKNPSVEGISFCNIASKAHQAGRDDLAIKLLELESRASLHVPLLLKMRKFDRAVGSATQSGDTELITQVLLEMKMHMMLSNLHMTIRDHPLALNIYKKIMRESNRAGLYGIYNTEDDQKAIAEYHFQNAIETEGLESNLSMIGNAYAQGRCTLEAELCADTSRLIKLQKTLSTKYNVSLNGLSIHETIQELLLIGELKEAERIRSEFKVPDRRFWWLRILTLSSQHKWEELEKLAKSKKSPIGYDPFVEVCLKQDNVMEARKYIPRCRDNRRVVWYMRANLFNEAIDSAFEQRDVHSLFELQKNQAIVNNGTLLSKVCDCIAMLEGK
Turning to B2, the binding result is recorded as “binds”.

B3: Vps39 (protein, UniProt Q9VEA2 1-876)
chain: MHQAYSVHSILKQGVQIESIAAYGNHVILGTRSGQLIMYSVDEETGVDMRMFNKNFSRKPITQMEVIASENLLFVLTDLQVQVCDIRRIESNFAFMHSAPDTKGCTLFTMDVDTPKSTTGRVATVIRVCCAIRRRLVFFFWKEDKLNSLELIIELSDVPRTLCWVGHAVCVGFKDEYVVYDISGKAPKKHNLFLTSSSISRDPCICLIRNNMLGISKDSYLVVVDPSQYKESDGINNSTDVRPAAMDSNSSLTPLLWSSPLLDLVWDEPFAVGRVNNAIEVRSLVGKDTLVQTIPELQKTKFLVHADKGTIFAAATSELWCIRMVEIPIQRQQLLQQKKFQLAIELTQISDEPAADRAQTIRQIHMLYAKELFTNKEFSAAMKEFEKAAIDPYDVIRLFPNLVPEPKPGTEDVTVPTSSTPALEDSDLENAYLALIEYLAWARQREVVKLRDTKSSSKSLLEIIDTTLLKCYLQTNDSLVAPLLRLNQCHLEESEKTLKKHNKISELIILYQMKGKHKEALKLLREQASIEGSVLQGRKRTIRYLQELGGDHLPLIFEFADWVLNDNPEEGLTIFTDELIEVESLPRAKVLDFFISKHKALVIPYLEHVITEWKDGNTLLHNVLLKQYREKVQRLLAQQEKGEEVPELIPMRAKLYKMLEESNDYSPDRLLEEFPTNILLEERALILGRLKKHDNVLSIYIHVLGDVAKATAYAEAHYKEDKHIFHTLIKCILIPPTQPLYDGVPLHPDFSQVNREVALEILNTHATRIDPFEIFEHLPDDMPMPQLEKYLEKSIRKMMADKHEMQMMCGFLEAESTRLENALEEQRNISFELNESSVCSECKKRFQTQSAFVRYPNGHIVHLSCHDRLARAAAQQ
Turning to B3, the binding entry is reported as “no binding”.

B4: Car/Vps33A (protein, UniProt Q9Y1I2 1-617)
chain: MFPHLKGHGQRVNLQLLQEAACRELLQQLDRIEGSKVIVLDETMIGPLDLVTRPKLFADRGIRLLALKPELHLPREVANVVYVMRPRVALMEQLAAHVKAGGRAAAGRQYHILFAPRRSCLCVSQLEVSGVLGSFGNIEELAWNYLPLDVDLVSMEMPNAFRDVSVDGDTSSLYQAAVGLVQLQRLYGRIPKIYGKGEFAHRVWEHAKQLGRDERTLYNGDKGVVDQLILLDRSIDLLSPLATQLTYEGLIDEFYGIRQNKLTLPAENFPSDGALPGGGGSGPRVEESQSLLGDTEKKTILLHSGEQLYAELRNKHFNEVTKLLARKAREIHVQMHATSQDKSVQEIKSFVENLLPQLMAQKKATSEHTAIAGLLHEQVNAVRFADDLAAEQEFMVCADIDKPSAYIEDLIACRVELNRVLRLICMQCHAASGFKEKLLNHYKRELVHVYGLEVLLTISNLEKSGLLHLQTESRAYSVLRKTLHLTVDDNVEIEPKDISYVHSFYAPLTARIVEHSLKPLGWQTLKSQINNLPGPTFEDFQAQLVGIGGRHTVTTVSEGSLLNVPRVVLVCFVGGCTFAEIAALRFLAAQEDNNVEFLIATTKVVNKHSFLDSLMSS
Regarding B4, the binding result was “binds”.

B5: Vps11 (protein, UniProt Q8SX81 1-830)
chain: MDISVFEWKKVDLFNIIVVPFVKIPNTAEISCYCFPESKSSTEERNIKLVICDKNRNILIYLSNWECITFKSPSTRKAIALCSLTSNNSLATVTPDINNGIHIDIFDLNRLTKKQAAPIIASAYTQPSSTPLCLNADVIDDKLFALAIGLGNGDILLHYGKITKNFSANIRQHTVSGNAVNGIHFDFKTQPLDTTQIMFVTCVQGVYCFMLKEKCIMDTKFVLDNDKGNLNYRSIMCKAGGGEINDSMLVVGRADAVYCYTPEGRGPCFAIEGAKECLAWVGHYLIVGVKNSNLKQNATTLIVLDTENKIIVFQRQFQELFYVISENNFCYIVTNSGDTDACNMLMLEKNSIDVNIRLLVEKHMYNIALRLLHREGYTSSPETALVRFQYGNHLLQKGDFSRATQEFIKTIGFIKPYAVISKLLYSRYNTYLLNYLTEWKKKNESSSCHTRLIECCIKRDQIEHEMQQDDFKHYKSPAKIKHLATLSKMYFACTPSNQVPVEEEHLLHQLLEYGPASLAVDLTTYLNNITFENVKESKNILSFCSILADHNDYCAKMLAKIIEAFPVCDEKLLFYLLVFYFKLWRLDKVTSSFVSDFIKTHSLRMDKTIIVSRLYTFFNVTQRIHGHQKNTGTLHNETIDKCIENLIKNNPDVALNENLSKRSFLMMLKSSCSTEEIKAIKIKPIFKDRLLRSIVDSANELKLVENFNEKIKRSRSMLSLYTNNPIEFRNDKCDICREMLSMQSIYFLCQHSFHEECLNYKSTKRQEKFLCIICKTRNLLSPKHSSNFSCDSSDTIAVLAKIVSIGNKLETKLMIRGRQKSDGVTCNPFN
On to B5, for which the binding result is on record as “no binding”.
